PubChem BioAssay AID445 (National Center for Advancing Translational Sciences (NCATS), 2006)
Some of the results follow. The main result of the screen is listed elsewhere. These columns were measured beside it and carry no call. Compounds called inactive in the main read-out are mostly missing here. Words in brackets tell the shape of the fitted curve; partial curves, single points and poor fits give uncertain potencies.

Assay: IkB Signaling
Settings: ABC-DLBCL IkBa-CBG/CBR dual luciferase ratio (green luciferase fused to IkBa over red control in OCI-Ly3 lymphoma cells), 4 h
How it was run: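 Luminescence ratio of IκBα-fused green versus native red beetle luciferase in OCI-Ly3 cells, 4 h post-doxycycline with compound; red signal alone, scaled from basal (0%) to zero light (-100%), flagged nonspecific or cytotoxic effects.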

[1] = measured here: control luc red channel unless noted
[2] = measured here: IkB-luc green channel
[3] = measured here: control luc red channel

For CC(=O)N1CCCc2cc(S(=O)(=O)N3CCCC(C(=O)NCc4ccc(Cl)cc4)C3)ccc21 (stereo not given), the AC50 [1] was 0.00794 µM [falling, full curve].

In the case of Cc1cc(O)c(C(c2cccc(Cl)c2)N2CCN(c3ccccc3)CC2)c(=O)n1Cc1ccco1 (stereo not given), the AC50 [1] was 1.58 µM [falling, full curve, poor fit].

For CCc1cc(C(=O)Cc2cnn(-c3ccccc3)c2)c(O)cc1O, the AC50 [2] was 39.8 µM [falling, single point] and the AC50 [3] was 39.8 µM [falling, single point].

In the case of Cc1ccc(-c2nc3c4cnn(-c5cc(Cl)ccc5Cl)c4ncn3n2)cc1, the AC50 [1] was 0.0158 µM [rising, full curve, poor fit].

With CCOC(=O)c1c(NC(=O)c2ccco2)sc(C(=O)N2CCCC2)c1C the AC50 [1] was 0.0316 µM [rising, full curve, poor fit].

For CC(C)Cc1nn2c(=O)cc(COC(=O)c3ccccc3NC(=O)c3ccccc3)nc2s1, the AC50 [1] was 15.8 µM [falling, single point].

With Cc1ccc(S(=O)(=O)N2CCN(C(=O)CSc3nc4ccccc4c(=O)[nH]3)CC2)c(C)c1 the AC50 [1] was 31.6 µM [falling, partial curve].

For CCOC(=O)N1CCc2c(sc3c2c(=O)n(Cc2ccccc2)c(=O)n3Cc2ccc(C)cc2)C1, the AC50 [1] was 12.6 µM [falling, single point].

In the case of Cc1ccc(-c2noc(C3CCN(C(=O)Nc4ccc(C#N)cc4)CC3)n2)o1, the AC50 [1] was 39.8 µM [falling, single point].

With CCOc1ccccc1CNC(=O)c1ccc(Cn2c(SCc3ccccc3)nc3cccnc32)cc1 the AC50 [1] was 10 µM [falling, partial curve].

In the case of N#CC1=C2SCC(O)(c3ccccc3)N2C(=O)CC1c1cccs1 (stereo not given), the AC50 [1] was 5.01 µM [falling, partial curve].

For Cc1cc(C)c2nc(NC(=O)c3ccc(S(=O)(=O)N4CCC(C)CC4)cc3)sc2c1, the AC50 [1] was 0.316 µM [falling, full curve, poor fit].

For CC(C)OC(=O)/C(C#N)=C/c1ccc(-c2ccc(Cl)c(Cl)c2)o1, the AC50 [1] was 6.31 µM [rising, single point].

For CCOC(=O)c1ccc(NC(=O)CC2C(=O)N(c3ccc(F)cc3)C(=O)N2Cc2ccc(C)cc2)cc1 (stereo not given), the AC50 [1] was 15.8 µM [falling, single point].

For COc1ccc(Nc2cc(C(=O)NCCCN(C)Cc3ccccc3)c3ccccc3n2)cc1, the AC50 [1] was 15.8 µM [falling, partial curve].

With CCOC(=O)c1ccccc1NC(=O)CSc1nnc(Cc2cccn2C)n1-c1ccc(C)cc1 the AC50 [1] was 31.6 µM [falling, partial curve].

With CCOc1cc(C2Sc3ccccc3NC3=C2C(=O)c2ccccc23)ccc1O (stereo not given) the AC50 [1] was 39.8 µM [falling, single point].

For COc1ccc(C(=O)Nc2ccccc2-c2nc3ccccc3s2)c(OC)c1, the AC50 [1] was 0.316 µM [falling, full curve, poor fit].

In the case of CCOC(=O)c1cnc2ccc(Cl)cc2c1Nc1ccc(OCC)cc1, the AC50 [1] was 31.6 µM [falling, single point].

In the case of COc1ccc(-c2nc(C#N)c(NCc3ccc(F)cc3)o2)cc1OC, the AC50 [1] was 20 µM [falling, single point].

With CC(C)OCCCNC(=O)CSc1c2c(nc3ccc(Cl)cc13)CCCC2 the AC50 [2] was 12.6 µM [rising, partial curve] and the AC50 [3] was 12.6 µM [falling, partial curve].

In the case of COc1cccc(-c2nc3c(c(SCC(=O)Nc4cc(C)ccc4C)n2)Cc2c(CO)cnc(C)c2O3)c1, the AC50 [1] was 0.0158 µM [rising, full curve].

For CC(=O)c1ccc(NC(=O)CCc2nc(-c3ccc(C)cc3)no2)cc1, the AC50 [1] was 25.1 µM [falling, partial curve].

With CC(=O)c1ccc(NC(=O)CSc2nc(C3CCCC3)nc3c2c(=O)n(C)c(=O)n3C)cc1 the AC50 [1] was 15.8 µM [falling, partial curve].

For Cc1c(NC(=O)c2ccc(Br)o2)cccc1-c1nc2ccccc2o1, the AC50 [1] was 1 µM [falling, full curve, poor fit].

For CCCSc1nc2sc3c(c2c(=O)n1-c1cccc(Br)c1)CC(C)(C)OC3, the AC50 [1] was 3.16 µM [rising, single point].

In the case of Cc1ccccc1Cn1c(SCc2ccc(C(=O)NC3CCCC3)cc2)nc2ccncc21, the AC50 [1] was 39.8 µM [falling, partial curve].

With CC(=O)Nc1ccc(Nc2ncnc3c2c(-c2ccccc2)cn3-c2ccc(C)c(Cl)c2)cc1 the AC50 [1] was 3.16 µM [falling, full curve].

In the case of COc1ccccc1N=c1scc(-c2ccc(S(=O)(=O)N3CCCC3)cc2)n1C, the AC50 [1] was 3.16 µM [falling, full curve].

For COc1ccccc1CNC(=O)CCNS(=O)(=O)c1cccc2nsnc12, the AC50 [1] was 3.16 µM [falling, single point].

With COc1cccc(NC(=O)N2CCN(C(=O)c3nsc4ccccc34)CC2)c1 the AC50 [1] was 15.8 µM [falling, single point].

For Cc1nc2c(c(C)nn2-c2ccccc2)c(C)c1CCC(=O)NCCc1ccc(Cl)cc1, the AC50 [1] was 7.94 µM [falling, full curve].

With Fc1ccc(N2CCN(Cc3cccn3-c3nnc(N4CCN(C5CCCCC5)CC4)s3)CC2)cc1 the AC50 [1] was 39.8 µM [falling, single point].

With Cc1ccc(NC(=O)C2CCCN(c3cnccn3)C2)c(C)c1 (stereo not given) the AC50 [1] was 0.158 µM [rising, full curve, poor fit].

In the case of CCc1ccccc1NC(=O)c1cc2c(Cl)nc3ccccc3c2s1, the AC50 [1] was 39.8 µM [falling, single point].

For COc1cc2[nH]c(=O)n(CCCCCC(=O)N3CCN(c4ccc(Cl)cc4)CC3)c(=O)c2cc1OC, the AC50 [2] was 39.8 µM [rising, single point] and the AC50 [3] was 6.31 µM [falling, single point].

In the case of O=C(CSc1cn(CC(=O)N2CCCC2)c2ccccc12)Nc1ccccc1C(F)(F)F, the AC50 [1] was 39.8 µM [falling, single point].

For Cc1cccc(Cn2c(=O)n(CC3CCC(C(=O)N4CCC(C)CC4)CC3)c(=O)c3sccc32)c1 (stereo not given), the AC50 [1] was 31.6 µM [falling, single point].

For CC(C)(C)OC(=O)N[C@@H](Cc1ccccc1)c1nnc(S(=O)(=O)Cc2cccc(F)c2)o1, the AC50 [2] was 6.31 µM [rising, single point] and the AC50 [3] was 7.94 µM [falling, partial curve].

In the case of Cc1ccc(CNC(=O)CN(c2cc(C)cc(C)c2)S(=O)(=O)c2c(C)noc2C)cc1, the AC50 [1] was 3.16 µM [falling, full curve, poor fit].

For Cc1nc2cc(-c3ccccc3)nn2c(C)c1CCC(=O)NCc1cccc(Cl)c1, the AC50 [1] was 12.6 µM [falling, partial curve].

With COC(=O)c1ccc(OCC(=O)Nc2nn(-c3ccccc3)nc2C(N)=O)cc1 the AC50 [2] was 2.51 µM [rising, partial curve] and the AC50 [3] was 3.16 µM [rising, partial curve].

For COC(=O)c1ccccc1NC(=O)c1ccc2c(Cl)c3c(nc2c1)CCCC3, the AC50 [1] was 3.98 µM [falling, full curve].

For CN(CC(=O)N1CCN(c2ccccn2)CC1)S(=O)(=O)c1ccc2ccccc2c1, the AC50 [1] was 15.8 µM [falling, partial curve].

With O=C(Nc1cccc(Br)c1)c1cc(-c2ccc3c(c2)OCCO3)on1 the AC50 [1] was 0.794 µM [falling, partial curve].

For CCn1nnc(NC(=O)c2ccc(-c3ccc(Cl)cc3)o2)n1, the AC50 [1] was 12.6 µM [falling, partial curve].

In the case of Cc1ccc(-n2cnc3cc(C(=O)NCc4ccccc4Cl)ccc32)c(C)c1, the AC50 [1] was 25.1 µM [falling, single point].

With COc1ccc(CC(=O)NCc2ccc3c(c2)CCN3C(=O)c2cccc(C)c2)cc1 the AC50 [1] was 0.1 µM [falling, full curve, poor fit].

With Cc1nc(-n2nc(C)c(Cc3ccc4c(c3)OCO4)c2C)sc1C(=O)Nc1ccc(Cl)cc1 the AC50 [1] was 15.8 µM [falling, partial curve].

In the case of Cc1cccc(Cn2cccc2CNS(=O)(=O)c2ccc(C)c(C)c2)c1, the AC50 [1] was 31.6 µM [falling, partial curve].

For O=C(c1ccco1)n1nc(-c2ccc(Cl)cc2)nc1NCc1ccc(F)cc1, the AC50 [1] was 10 µM [rising, partial curve].

For COc1ccc(C2C(C(=O)Nc3ccccc3)=C(C)Nc3nc(-c4ccccc4Cl)nn32)cc1OC (stereo not given), the AC50 [1] was 20 µM [falling, single point].

In the case of CCCn1nnc2sc3c(c2c1=O)CCC(C)C3 (stereo not given), the AC50 [1] was 2 µM [rising, full curve].

For Cc1cc(C)c2sc(N3CCN(C(=O)C4CC4)CC3)nc2c1, the AC50 [1] was 12.6 µM [rising, partial curve].

For CCc1ccc2ncc3c(-c4ccc(C)cc4)nn(CC(=O)Nc4ccc(C)cc4)c3c2c1, the AC50 [1] was 0.0316 µM [rising, full curve, poor fit].

In the case of COc1ccc(Oc2nc3c(C)cccn3c(=O)c2/C=C(\C#N)c2nc3ccccc3[nH]2)cc1, the AC50 [1] was 0.2 µM [falling, full curve].

For Cc1onc(-c2ccccc2Cl)c1C(=O)OCC(=O)Nc1ccc2c(c1)OCO2, the AC50 [1] was 39.8 µM [falling, single point].

In the case of Cc1ccccc1CNCCSc1nnnn1-c1ccccc1, the AC50 [1] was 0.398 µM [falling, partial curve, poor fit].

For COc1ccccc1OCc1ccc(C(=O)n2nc(C)c(Cl)c2C)o1, the AC50 [1] was 15.8 µM [falling, partial curve].

With COc1ccc(CNC(=O)CCc2c(C)c3cc4c(C)coc4cc3oc2=O)cc1 the AC50 [1] was 20 µM [falling, partial curve, poor fit].
